Results are given in words; binding and its absence hold for the method and conditions named. Binding seen in cells or lysates may run through a third protein. Here binding means that the protein was enriched with, or labelled near, the bait; the list need not be complete. For some of these results: A no says only that the protein was not detected with the bait. For some of these results: Sequences can lack the tags named with a protein.
B1: GRP170, endogenous (protein, UniProt Q9Y4L1 33-999)
chain: LAVMSVDLGSESMKVAIVKPGVPMEIVLNKESRRKTPVIVTLKENERFFGDSAASMAIKNPKATLRYFQHLLGKQADNPHVALYQARFPEHELTFDPQRQTVHFQISSQLQFSPEEVLGMVLNYSRSLAEDFAEQPIKDAVITVPVFFNQAERRAVLQAARMAGLKVLQLINDNTATALSYGVFRRKDINTTAQNIMFYDMGSGSTVCTIVTYQMVKTKEAGMQPQLQIRGVGFDRTLGGLEMELRLRERLAGLFNEQRKGQRAKDVRENPRAMAKLLREANRLKTVLSANADHMAQIEGLMDDVDFKAKVTRVEFEELCADLFERVPGPVQQALQSAEMSLDEIEQVILVGGATRVPRVQEVLLKAVGKEELGKNINADEAAAMGAVYQAAALSKAFKVKPFVVRDAVVYPILVEFTREVEEEPGIHSLKHNKRVLFSRMGPYPQRKVITFNRYSHDFNFHINYGDLGFLGPEDLRVFGSQNLTTVKLKGVGDSFKKYPDYESKGIKAHFNLDESGVLSLDRVESVFETLVEDSAEEESTLTKLGNTISSLFGGGTTPDAKENGTDTVQEEEESPAEGSKDEPGEQVELKEEAEAPVEDGSQPPPPEPKGDATPEGEKATEKENGDKSEAQKPSEKAEAGPEGVAPAPEGEKKQKPARKRRMVEEIGVELVVLDLPDLPEDKLAQSVQKLQDLTLRDLEKQEREKAANSLEAFIFETQDKLYQPEYQEVSTEEQREEISGKLSAASTWLEDEGVGATTVMLKEKLAELRKLCQGLFFRVEERKKWPERLSALDNLLNHSSMFLKGARLIPEMDQIFTEVEMTTLEKVINETWAWKNATLAEQAKLPATEKPVLLSKDIEAKMMALDREVQYLLNKAKFTKPRPRPKDKNGTRAEPPLNASASDQGEKVIPPAGQTEDAEPISEPEKVETGSEPGDTEPLELGGPGAEPEQKEQSTGQKRPLKNDEL

Amino acid sequences for entries named in this document (tags omitted). Residues count along the entry.
UniProt P60568, residues 21-153: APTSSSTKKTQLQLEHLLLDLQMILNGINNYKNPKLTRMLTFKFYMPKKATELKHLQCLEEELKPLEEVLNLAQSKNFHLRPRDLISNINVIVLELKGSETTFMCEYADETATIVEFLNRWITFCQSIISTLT
UniProt P11021, residues 19-654: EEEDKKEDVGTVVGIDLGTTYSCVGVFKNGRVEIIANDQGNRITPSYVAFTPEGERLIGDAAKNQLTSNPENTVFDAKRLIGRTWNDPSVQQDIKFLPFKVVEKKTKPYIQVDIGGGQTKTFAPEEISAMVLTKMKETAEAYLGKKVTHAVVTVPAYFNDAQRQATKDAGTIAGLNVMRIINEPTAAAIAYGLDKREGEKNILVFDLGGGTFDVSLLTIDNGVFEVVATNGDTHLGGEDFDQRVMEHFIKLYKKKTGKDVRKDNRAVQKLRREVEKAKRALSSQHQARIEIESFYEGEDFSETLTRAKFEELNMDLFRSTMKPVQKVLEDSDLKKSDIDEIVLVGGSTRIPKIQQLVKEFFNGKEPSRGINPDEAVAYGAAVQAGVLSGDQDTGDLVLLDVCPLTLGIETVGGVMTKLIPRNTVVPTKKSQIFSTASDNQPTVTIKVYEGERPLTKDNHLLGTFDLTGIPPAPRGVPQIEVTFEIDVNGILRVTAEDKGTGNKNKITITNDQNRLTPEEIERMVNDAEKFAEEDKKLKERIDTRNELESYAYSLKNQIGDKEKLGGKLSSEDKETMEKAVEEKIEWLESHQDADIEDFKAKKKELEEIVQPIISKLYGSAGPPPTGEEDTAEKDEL
UniProt P14625, residues 22-803: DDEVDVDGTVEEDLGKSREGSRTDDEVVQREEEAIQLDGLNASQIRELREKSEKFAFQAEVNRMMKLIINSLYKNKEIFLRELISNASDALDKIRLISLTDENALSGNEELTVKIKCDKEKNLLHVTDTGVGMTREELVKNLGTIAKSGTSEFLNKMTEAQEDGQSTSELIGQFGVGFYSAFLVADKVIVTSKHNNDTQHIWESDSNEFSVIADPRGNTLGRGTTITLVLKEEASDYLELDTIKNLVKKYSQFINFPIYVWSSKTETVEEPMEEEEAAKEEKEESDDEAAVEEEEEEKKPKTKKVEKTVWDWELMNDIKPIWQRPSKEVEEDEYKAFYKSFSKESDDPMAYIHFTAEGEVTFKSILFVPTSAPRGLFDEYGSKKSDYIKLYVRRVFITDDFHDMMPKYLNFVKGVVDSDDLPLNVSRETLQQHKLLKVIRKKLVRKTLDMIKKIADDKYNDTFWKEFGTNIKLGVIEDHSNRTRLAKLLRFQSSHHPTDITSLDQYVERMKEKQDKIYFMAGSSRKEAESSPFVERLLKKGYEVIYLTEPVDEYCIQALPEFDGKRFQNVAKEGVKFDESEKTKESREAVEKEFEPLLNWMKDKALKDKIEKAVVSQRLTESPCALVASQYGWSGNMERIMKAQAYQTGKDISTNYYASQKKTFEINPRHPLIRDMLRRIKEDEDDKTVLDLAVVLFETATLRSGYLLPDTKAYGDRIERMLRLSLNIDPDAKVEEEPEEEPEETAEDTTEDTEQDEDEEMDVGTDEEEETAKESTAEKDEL
UniProt P27824, residues 21-592: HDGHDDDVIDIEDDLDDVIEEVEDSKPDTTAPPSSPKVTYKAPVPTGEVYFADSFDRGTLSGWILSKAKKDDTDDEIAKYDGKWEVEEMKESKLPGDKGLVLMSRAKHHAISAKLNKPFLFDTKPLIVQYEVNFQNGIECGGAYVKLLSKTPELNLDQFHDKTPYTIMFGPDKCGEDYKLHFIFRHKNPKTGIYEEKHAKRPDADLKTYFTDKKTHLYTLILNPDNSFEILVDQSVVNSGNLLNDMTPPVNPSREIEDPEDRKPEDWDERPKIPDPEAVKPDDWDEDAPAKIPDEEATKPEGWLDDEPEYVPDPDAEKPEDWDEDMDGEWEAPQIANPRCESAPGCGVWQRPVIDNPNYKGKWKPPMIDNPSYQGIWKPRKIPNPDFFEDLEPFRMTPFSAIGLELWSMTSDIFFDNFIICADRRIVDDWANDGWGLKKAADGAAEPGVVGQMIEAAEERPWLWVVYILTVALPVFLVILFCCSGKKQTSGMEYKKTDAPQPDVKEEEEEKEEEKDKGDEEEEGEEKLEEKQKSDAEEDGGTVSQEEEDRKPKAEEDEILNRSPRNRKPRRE

What was measured:
Assay in all cases: affinity purification with mass spectrometry; anti-FLAG resin from lysates of transiently transfected HEK293 or HeLa cells, o/n at 4°C, washed with 50 mM Tris, 150 mM NaCl, pH 7.4, 0.1% Tween 20; eluates on SDS-PAGE, silver stained, bands cut and identified by nLC MS/MS; the legend speaks of DSP treatment
[1] = target: T1, IL-22 binding protein isoform-2 (IL-22BPi2), C-terminally myc-FLAG-tagged (human) (UniProt Q969J5)
T1 sequence: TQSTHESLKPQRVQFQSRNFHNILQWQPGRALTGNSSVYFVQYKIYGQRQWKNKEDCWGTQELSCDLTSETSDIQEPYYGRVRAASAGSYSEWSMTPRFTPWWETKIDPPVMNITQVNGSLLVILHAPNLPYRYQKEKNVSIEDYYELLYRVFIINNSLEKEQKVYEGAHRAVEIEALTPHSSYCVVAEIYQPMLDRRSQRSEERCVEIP

[2] = target: T2, IL-22 binding protein isoform-1 (IL-22BPi1), C-terminally myc-FLAG-tagged (human) (UniProt Q969J5)
T2 sequence: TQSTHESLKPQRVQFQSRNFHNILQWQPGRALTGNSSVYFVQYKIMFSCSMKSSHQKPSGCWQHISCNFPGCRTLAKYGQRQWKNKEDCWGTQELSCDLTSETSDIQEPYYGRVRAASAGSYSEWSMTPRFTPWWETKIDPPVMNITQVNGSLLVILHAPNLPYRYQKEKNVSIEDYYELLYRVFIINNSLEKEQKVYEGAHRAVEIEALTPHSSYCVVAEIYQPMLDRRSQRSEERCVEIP

[3] = target: T3, IL-22, C-terminal Myc-FLAG-tagged (UniProt Q9GZX6)
T3 sequence: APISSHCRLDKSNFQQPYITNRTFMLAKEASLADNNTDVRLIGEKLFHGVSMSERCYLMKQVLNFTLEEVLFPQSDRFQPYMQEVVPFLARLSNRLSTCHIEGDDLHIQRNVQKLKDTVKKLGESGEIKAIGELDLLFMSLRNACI

[4] = target: T4, IL-22 binding protein isoform-3 (IL-22BPi3), FLAG-tagged (human) (UniProt Q969J5)
T4 sequence: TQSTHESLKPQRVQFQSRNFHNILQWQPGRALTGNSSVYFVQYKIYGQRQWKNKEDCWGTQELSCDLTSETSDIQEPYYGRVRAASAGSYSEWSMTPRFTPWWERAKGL

[5] = target: IL-2, C-terminal Myc-FLAG-tagged (UniProt P60568)

Molecule | binding [1] | binding [2] | binding [3] | binding [4] | binding [5]
GRP78, full-length endogenous (from UniProt P11021 19-654) | binds | binds | no binding | no binding | no binding
GRP94, endogenous (from UniProt P14625 22-803) |  | binds |  |  | 
calnexin, endogenous (from UniProt P27824 21-592) | binds | binds |  |  | 
B1 | binds | binds |  |  | 
